These are literature values, as cited in patent US20250090698A1, “SMALL MOLECULE INHIBITORS FOR EARLY DIAGNOSIS OF PROSTATE SPECIFIC MEMBRANE ANTIGEN CANCERS AND NEURODEGENERATIVE DISEASES” (INDIAN INSTITUTE OF TECHNOLOGY INDORE, priority 2018, published 2025).

The chains behind the UniProt entries cited, without tags or fusion partners.
UniProt Q04609, whole entry: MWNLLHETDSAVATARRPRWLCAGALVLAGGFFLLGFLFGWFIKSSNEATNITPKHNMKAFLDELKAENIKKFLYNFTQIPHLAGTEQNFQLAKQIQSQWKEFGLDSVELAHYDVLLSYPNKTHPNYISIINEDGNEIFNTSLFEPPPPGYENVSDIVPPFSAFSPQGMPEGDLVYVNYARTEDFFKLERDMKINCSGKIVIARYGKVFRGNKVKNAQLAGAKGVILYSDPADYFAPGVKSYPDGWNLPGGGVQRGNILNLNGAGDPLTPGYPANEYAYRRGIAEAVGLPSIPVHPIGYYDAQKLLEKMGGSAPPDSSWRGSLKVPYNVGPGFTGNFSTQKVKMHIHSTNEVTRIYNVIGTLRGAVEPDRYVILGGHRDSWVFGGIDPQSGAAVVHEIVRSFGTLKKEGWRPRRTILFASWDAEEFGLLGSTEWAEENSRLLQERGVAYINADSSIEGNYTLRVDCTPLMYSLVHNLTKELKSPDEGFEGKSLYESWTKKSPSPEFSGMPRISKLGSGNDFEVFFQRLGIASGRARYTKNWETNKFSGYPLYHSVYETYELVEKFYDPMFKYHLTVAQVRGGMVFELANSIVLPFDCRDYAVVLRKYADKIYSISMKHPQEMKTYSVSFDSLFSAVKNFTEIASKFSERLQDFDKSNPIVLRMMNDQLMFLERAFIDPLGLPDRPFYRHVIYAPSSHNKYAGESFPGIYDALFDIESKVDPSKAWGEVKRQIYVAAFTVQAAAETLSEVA

The target of this data set is PSMA (Homo sapiens, UniProt Q04609). As to conditions: cited from earlier work.

Like-named read-outs stand apart in the source and are kept apart here. Structures were worked out from names or drawings and are uncertain.

For the compound `CCC(C)C(NCC(=O)NC(CCC(=O)O)C(=O)O)C(=O)O` (centres unmarked), the Kd (DUPA conjugates with different peptide spacers) is 102 nM.
For the compound `O=C(O)CCC(NC(=O)CNC(CC(=O)O)C(=O)O)C(=O)O` (centres unmarked), under “DUPA conjugates, as repeated in text”, the Kd was 338 nM.
